± gives the standard deviation of the averaged measurements. Most entries show no effect beyond the scatter of the controls.
Legend:
Assay in all cases: level (log10 ratio to DMSO vehicle control); higher = higher biomarker level / cell amount than vehicle control
[1] = compound: Cc1ccc(S(=O)(=O)OCC(F)(F)C(F)(F)C(F)(F)C(F)(F)C(F)(F)C(F)F)cc1 [1H,1H,7H-Perfluoroheptyl 4-methylbenzenesulfonate]; details: 2200 nM; in DMSO
Experimental: (§1)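 BioMAP Diversity Plus panel of 12 human primary cell co-culture systems (3C, 4H, LPS, SAg, BT, BF4T, BE3C, CASM3C, HDF3CGF, KF3CT, MyoF, Mphg). Compounds were added 1 h before stimulation and left for 24 h (MyoF 48 h; BT 72 h for soluble read-outs or 6 d for IgG). Biomarkers were read by ELISA, cytotoxicity by SRB, PBMC viability and proliferation by Alamar Blue. Each well value was divided by the mean of 8 DMSO control wells on the same plate and log10 transformed; duplicate blinded samples were tested at 4 concentrations.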

[2] = compound: OCCC(F)(F)C(F)(F)C(F)(F)C(F)(F)C(F)(F)C(F)(F)F [6:2 Fluorotelomer alcohol]; details: 2200 nM; in DMSO
Experimental: as §1

[3] = compound: CN(C(=O)C(F)(F)C(F)(F)C(F)(F)F)[Si](C)(C)C [N-Methyl-N-trimethylsilylheptafluorobutyramide]; details: 2200 nM; in DMSO
Experimental: as §1

[4] = compound: O=C(O)C(F)(F)C(F)(F)C(F)(F)C(F)(F)C(F)(F)C(F)(F)C(F)(F)C(F)(F)C(F)(F)C(F)F [11-H-Perfluoroundecanoic acid]; details: 2200 nM; in DMSO
Experimental: as §1

[5] = compound: CC(C)(C)C(=O)CC(=O)C(F)(F)C(F)(F)C(F)(F)F [(Heptafluorobutanoyl)pivaloylmethane]; details: 2200 nM; in DMSO
Experimental: as §1

1-(Perfluorohexyl)octane = compound: CCCCCCCCC(F)(F)C(F)(F)C(F)(F)C(F)(F)C(F)(F)C(F)(F)F [1-(Perfluorohexyl)octane]; details: in DMSO
Experimental: as §1

Perfluoroheptanoic acid = compound: O=C(O)C(F)(F)C(F)(F)C(F)(F)C(F)(F)C(F)(F)C(F)(F)F [Perfluoroheptanoic acid]; details: in DMSO
Experimental: as §1

Heptafluorobutyramide = compound: NC(=O)C(F)(F)C(F)(F)C(F)(F)F [Heptafluorobutyramide]; details: 2200 nM; in DMSO
Experimental: as §1

1H,1H-Heptafluorobutanol = compound: OCC(F)(F)C(F)(F)C(F)(F)F [1H,1H-Heptafluorobutanol]; details: 2200 nM; in DMSO
Experimental: as §1

[6] = compound: O=S(=O)(O)CCC(F)(F)C(F)(F)C(F)(F)C(F)(F)C(F)(F)C(F)(F)C(F)(F)C(F)(F)F [8:2 Fluorotelomer sulfonic acid]; details: in DMSO
Experimental: as §1

Perfluoropentanoic acid = compound: O=C(O)C(F)(F)C(F)(F)C(F)(F)C(F)(F)F [Perfluoropentanoic acid]; details: in DMSO
Experimental: as §1

[7] = compound: CCN(CCO)S(=O)(=O)C(F)(F)C(F)(F)C(F)(F)C(F)(F)C(F)(F)C(F)(F)C(F)(F)C(F)(F)F [N-Ethyl-N-(2-hydroxyethyl)perfluorooctanesulfonamide]; details: in DMSO
Experimental: as §1

[8] = compound: FC(F)(F)C(F)(F)C(F)(F)C(F)(F)C(F)(F)C(F)(F)CC1CO1 [3-(Perfluorohexyl)-1,2-epoxypropane]; details: 2200 nM; in DMSO
Experimental: as §1

[9] = compound: NCC(F)(F)C(F)(F)C(F)(F)C(F)(F)C(F)(F)C(F)(F)C(F)(F)F [1H,1H-Perfluorooctylamine]; details: 2200 nM; in DMSO
Experimental: as §1

Octafluoroadipic acid = compound: O=C(O)C(F)(F)C(F)(F)C(F)(F)C(F)(F)C(=O)O [Octafluoroadipic acid]; details: 2200 nM; in DMSO
Experimental: as §1

[10] = compound: O=C(O)C(F)(F)C(F)(F)C(F)(F)OC(F)(F)F [Perfluoro(4-methoxybutanoic) acid]; details: 2200 nM; in DMSO
Experimental: as §1

Test System | level (log10) [1] | level (log10) [2] | level (log10) [3] | level (log10) [4] | level (log10) [5] | level (log10) (1-(Perfluorohexyl)octane; 740 nM) | level (log10) (1-(Perfluorohexyl)octane; 2200 nM) | level (log10) (Perfluoroheptanoic acid; 2200 nM) | level (log10) (Perfluoroheptanoic acid; 6700 nM) | level (log10) (Perfluoroheptanoic acid; 20000 nM) | level (log10) (Perfluoroheptanoic acid; 60000 nM) | level (log10) (Heptafluorobutyramide) | level (log10) (1H,1H-Heptafluorobutanol) | level (log10) ([6]; 2200 nM) | level (log10) ([6]; 6700 nM) | level (log10) ([6]; 20000 nM) | level (log10) ([6]; 60000 nM) | level (log10) (Perfluoropentanoic acid; 2200 nM) | level (log10) (Perfluoropentanoic acid; 6700 nM) | level (log10) (Perfluoropentanoic acid; 20000 nM) | level (log10) (Perfluoropentanoic acid; 60000 nM) | level (log10) ([7]; 2200 nM) | level (log10) ([7]; 6700 nM) | level (log10) ([7]; 20000 nM) | level (log10) [8] | level (log10) [9] | level (log10) (Octafluoroadipic acid) | level (log10) [10]
HDF3CGF:CXCL10/IP-10 | -0.0385 ± 0.00071 | -0.012 ± 0.0071 | 0.0295 ± 0.0092 | -0.073 ± 0.047 | 0.016 ± 0.017 | -0.0305 ± 0.023 | -0.0115 ± 0.033 | 0.0065 ± 0.047 | -0.0295 ± 0.046 | -0.015 ± 0.016 | -0.0295 ± 0.0092 | -0.008 ± 0.011 | 0.0035 ± 0.033 | -0.01 ± 0.0014 | -0.014 ± 0.0014 | -0.0315 ± 0.0092 | -0.06 ± 0.016 | 0.0065 ± 0.036 | 0 ± 0.014 | -0.011 ± 0.0028 | 0.006 ± 0.0057 | -0.006 ± 0.031 | -0.0725 ± 0.05 | -0.206 ± 0.0057 | 0.018 ± 0.059 | -0.015 ± 0.072 | -0.0085 ± 0.0064 | -0.006 ± 0.025
BT:PBMC Cytotoxicity | -0.0025 ± 0.005 | -0.0195 ± 0.0035 | 0.002 ± 0.0057 | -0.029 ± 0.04 | 0.0195 ± 0.032 | -0.0175 ± 0.025 | -0.012 ± 0.021 | -0.028 ± 0.017 | -0.0175 ± 0.0064 | 0.001 ± 0.0057 | 0.063 ± 0.0014 | 0.0155 ± 0.0092 | 0.012 ± 0.025 | 0.0195 ± 0.035 | 0.006 ± 0.018 | 0.0115 ± 0.005 | 0.0505 ± 0.018 | 0.02 ± 0.04 | 0.0075 ± 0.035 | -0.0055 ± 0.0078 | 0.0255 ± 0.013 | 0.0065 ± 0.025 | -0.003 ± 0.027 | -0.0615 ± 0.0035 | -0.0195 ± 0.0021 | -0.017 ± 0.0028 | 0.0085 ± 0.015 | 0.019 ± 0.021
